The source of these data is publication PMC6500973.

The chains behind the UniProt entries cited, without tags or fusion partners.
UniProt P51532: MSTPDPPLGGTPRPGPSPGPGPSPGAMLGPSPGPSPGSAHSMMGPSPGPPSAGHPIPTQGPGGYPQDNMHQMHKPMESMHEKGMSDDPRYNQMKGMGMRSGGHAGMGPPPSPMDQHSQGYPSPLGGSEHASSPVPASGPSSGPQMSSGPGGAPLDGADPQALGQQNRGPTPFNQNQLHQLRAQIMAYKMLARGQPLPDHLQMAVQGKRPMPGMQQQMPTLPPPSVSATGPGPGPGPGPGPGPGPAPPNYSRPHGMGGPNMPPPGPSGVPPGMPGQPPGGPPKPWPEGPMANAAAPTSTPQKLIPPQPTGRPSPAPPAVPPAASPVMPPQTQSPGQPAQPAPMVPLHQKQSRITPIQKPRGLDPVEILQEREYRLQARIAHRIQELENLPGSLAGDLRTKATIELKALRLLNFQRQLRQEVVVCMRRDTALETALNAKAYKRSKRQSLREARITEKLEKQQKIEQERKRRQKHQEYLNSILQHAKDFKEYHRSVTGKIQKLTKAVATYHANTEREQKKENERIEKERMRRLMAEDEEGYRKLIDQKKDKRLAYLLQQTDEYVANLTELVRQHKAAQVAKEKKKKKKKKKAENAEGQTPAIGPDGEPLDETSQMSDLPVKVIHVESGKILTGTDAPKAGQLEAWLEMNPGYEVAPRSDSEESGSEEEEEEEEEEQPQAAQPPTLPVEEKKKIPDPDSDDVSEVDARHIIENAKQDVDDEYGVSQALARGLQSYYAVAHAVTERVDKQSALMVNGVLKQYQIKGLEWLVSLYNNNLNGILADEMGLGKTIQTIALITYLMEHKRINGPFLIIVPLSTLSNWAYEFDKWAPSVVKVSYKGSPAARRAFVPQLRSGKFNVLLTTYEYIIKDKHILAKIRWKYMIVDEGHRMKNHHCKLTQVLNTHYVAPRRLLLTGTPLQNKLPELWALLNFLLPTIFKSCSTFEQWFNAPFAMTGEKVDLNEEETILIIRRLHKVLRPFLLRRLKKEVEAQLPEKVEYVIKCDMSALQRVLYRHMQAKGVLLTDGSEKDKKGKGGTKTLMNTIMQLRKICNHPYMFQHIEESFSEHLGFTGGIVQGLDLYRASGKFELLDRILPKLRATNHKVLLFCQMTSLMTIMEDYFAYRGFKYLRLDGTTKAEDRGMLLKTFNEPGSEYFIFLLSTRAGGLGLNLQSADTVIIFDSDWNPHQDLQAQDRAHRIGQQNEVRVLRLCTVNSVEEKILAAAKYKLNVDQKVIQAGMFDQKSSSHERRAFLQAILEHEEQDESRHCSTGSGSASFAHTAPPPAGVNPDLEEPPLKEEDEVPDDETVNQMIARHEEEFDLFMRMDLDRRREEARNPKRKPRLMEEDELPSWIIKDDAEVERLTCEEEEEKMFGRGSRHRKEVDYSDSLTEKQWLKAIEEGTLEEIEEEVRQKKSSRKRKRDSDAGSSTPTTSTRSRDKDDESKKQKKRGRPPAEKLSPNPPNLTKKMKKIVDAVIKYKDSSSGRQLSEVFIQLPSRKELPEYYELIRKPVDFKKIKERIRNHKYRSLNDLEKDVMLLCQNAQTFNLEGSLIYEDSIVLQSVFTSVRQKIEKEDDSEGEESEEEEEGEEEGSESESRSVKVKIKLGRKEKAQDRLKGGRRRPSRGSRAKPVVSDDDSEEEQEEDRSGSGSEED
UniProt Q01844: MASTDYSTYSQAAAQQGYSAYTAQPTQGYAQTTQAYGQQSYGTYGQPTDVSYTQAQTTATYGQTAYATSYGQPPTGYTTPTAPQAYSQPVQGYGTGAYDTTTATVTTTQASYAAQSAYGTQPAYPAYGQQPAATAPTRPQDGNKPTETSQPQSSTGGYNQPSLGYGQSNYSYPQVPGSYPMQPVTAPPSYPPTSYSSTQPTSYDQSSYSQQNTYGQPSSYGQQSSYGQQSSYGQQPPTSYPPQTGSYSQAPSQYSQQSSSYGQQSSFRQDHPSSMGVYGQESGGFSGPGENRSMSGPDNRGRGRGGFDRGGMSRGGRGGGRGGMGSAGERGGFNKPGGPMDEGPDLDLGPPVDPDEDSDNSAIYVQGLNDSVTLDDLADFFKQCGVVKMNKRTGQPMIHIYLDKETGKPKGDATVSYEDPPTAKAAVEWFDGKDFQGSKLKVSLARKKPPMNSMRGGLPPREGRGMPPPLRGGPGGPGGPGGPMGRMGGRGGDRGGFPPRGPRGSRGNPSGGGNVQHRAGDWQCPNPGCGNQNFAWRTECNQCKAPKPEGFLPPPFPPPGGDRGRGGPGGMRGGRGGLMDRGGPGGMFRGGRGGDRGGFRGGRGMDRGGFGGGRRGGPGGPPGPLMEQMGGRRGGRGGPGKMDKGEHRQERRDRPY
UniProt P35637: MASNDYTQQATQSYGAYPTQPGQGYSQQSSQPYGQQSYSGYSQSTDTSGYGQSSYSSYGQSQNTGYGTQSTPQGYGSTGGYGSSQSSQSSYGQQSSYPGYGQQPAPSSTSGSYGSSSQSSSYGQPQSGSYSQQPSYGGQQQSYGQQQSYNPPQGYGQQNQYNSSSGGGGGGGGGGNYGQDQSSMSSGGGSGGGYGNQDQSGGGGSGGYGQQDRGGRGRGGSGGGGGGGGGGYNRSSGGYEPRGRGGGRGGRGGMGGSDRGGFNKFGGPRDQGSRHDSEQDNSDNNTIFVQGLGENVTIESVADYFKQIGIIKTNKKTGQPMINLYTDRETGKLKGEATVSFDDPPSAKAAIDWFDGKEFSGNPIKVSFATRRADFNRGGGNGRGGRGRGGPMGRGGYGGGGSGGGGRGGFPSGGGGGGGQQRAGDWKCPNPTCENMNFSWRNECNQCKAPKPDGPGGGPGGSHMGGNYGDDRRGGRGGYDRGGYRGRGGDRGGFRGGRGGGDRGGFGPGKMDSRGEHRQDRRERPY
UniProt Q8TAQ2: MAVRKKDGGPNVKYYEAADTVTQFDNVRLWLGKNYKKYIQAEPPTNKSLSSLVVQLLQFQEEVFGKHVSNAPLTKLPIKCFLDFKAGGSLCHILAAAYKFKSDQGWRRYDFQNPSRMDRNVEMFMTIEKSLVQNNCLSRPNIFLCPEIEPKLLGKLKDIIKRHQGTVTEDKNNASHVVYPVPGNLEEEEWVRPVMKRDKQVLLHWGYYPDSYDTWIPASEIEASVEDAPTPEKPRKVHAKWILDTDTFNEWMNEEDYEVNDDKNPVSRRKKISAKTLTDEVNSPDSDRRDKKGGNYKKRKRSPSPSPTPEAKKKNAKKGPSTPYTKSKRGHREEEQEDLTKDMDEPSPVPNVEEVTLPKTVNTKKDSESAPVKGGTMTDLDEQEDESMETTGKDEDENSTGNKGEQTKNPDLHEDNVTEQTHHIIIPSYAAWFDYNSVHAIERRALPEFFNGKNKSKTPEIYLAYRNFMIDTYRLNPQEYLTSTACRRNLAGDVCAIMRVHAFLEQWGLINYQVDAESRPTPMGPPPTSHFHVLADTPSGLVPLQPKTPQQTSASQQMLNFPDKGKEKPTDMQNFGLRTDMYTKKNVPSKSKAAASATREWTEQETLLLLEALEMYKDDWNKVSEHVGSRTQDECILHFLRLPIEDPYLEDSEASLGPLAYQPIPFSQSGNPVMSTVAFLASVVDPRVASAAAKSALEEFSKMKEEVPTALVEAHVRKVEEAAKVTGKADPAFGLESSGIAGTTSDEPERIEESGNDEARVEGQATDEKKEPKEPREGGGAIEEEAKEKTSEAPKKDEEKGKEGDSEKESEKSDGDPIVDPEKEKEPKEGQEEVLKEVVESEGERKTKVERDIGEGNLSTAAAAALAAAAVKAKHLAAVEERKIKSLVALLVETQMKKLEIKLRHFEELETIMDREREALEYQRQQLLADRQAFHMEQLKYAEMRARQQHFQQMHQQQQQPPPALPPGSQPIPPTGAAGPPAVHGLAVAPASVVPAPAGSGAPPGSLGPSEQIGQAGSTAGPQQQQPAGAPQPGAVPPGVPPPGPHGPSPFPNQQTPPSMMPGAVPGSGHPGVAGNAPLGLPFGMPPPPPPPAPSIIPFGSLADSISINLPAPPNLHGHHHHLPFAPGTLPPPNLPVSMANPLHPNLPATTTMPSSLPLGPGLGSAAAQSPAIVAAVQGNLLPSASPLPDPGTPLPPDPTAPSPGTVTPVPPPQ
UniProt Q92922: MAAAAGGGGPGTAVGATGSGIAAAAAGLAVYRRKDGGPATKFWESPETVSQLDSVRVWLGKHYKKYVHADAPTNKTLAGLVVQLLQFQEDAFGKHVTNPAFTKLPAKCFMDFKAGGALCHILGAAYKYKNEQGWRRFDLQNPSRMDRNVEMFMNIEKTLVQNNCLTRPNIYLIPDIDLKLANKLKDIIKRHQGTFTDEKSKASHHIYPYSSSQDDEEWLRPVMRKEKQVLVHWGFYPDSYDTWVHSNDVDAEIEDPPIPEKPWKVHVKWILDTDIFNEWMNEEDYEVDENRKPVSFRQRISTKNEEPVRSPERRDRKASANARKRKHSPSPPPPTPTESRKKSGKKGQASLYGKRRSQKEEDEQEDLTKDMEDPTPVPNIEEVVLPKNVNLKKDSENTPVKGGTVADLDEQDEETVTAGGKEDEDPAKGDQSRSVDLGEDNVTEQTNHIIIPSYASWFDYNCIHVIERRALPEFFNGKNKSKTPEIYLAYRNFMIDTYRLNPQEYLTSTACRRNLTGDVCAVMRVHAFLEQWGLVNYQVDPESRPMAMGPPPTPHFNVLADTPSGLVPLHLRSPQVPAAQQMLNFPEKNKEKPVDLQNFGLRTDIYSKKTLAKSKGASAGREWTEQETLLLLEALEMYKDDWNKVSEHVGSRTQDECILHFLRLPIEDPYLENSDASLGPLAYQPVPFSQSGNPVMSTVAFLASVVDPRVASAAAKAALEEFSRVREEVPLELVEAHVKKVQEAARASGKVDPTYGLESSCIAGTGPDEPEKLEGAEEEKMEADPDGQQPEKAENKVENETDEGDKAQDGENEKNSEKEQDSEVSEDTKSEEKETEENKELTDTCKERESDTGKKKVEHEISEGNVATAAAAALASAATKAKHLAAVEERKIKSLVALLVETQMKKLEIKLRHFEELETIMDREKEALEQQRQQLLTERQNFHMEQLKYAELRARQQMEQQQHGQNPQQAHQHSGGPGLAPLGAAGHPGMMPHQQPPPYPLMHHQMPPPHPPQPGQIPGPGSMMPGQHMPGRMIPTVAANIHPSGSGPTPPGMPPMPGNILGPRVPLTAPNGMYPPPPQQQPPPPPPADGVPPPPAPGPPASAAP
UniProt Q12824: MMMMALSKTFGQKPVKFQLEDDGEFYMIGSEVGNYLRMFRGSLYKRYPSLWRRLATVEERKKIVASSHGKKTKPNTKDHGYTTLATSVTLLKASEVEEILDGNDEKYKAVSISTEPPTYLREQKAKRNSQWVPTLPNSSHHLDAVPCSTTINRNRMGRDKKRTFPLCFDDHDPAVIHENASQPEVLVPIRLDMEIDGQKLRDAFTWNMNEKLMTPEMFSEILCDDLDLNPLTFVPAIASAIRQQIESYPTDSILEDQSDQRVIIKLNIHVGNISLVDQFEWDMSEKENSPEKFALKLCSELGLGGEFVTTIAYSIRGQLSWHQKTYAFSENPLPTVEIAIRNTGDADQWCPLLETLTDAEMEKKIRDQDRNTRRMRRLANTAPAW
UniProt Q969G3: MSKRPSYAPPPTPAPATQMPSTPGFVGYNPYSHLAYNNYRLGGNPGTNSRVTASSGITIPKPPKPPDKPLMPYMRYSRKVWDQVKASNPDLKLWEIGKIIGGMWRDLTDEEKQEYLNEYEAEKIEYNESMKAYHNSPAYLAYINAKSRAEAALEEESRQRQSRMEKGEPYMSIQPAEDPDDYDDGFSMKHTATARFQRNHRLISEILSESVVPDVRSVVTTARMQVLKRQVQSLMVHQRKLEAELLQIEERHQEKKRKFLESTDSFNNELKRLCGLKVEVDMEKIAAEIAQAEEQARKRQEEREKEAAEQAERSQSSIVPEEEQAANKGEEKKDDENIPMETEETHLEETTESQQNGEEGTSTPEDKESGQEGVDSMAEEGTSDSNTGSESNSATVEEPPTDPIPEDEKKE
UniProt Q92925: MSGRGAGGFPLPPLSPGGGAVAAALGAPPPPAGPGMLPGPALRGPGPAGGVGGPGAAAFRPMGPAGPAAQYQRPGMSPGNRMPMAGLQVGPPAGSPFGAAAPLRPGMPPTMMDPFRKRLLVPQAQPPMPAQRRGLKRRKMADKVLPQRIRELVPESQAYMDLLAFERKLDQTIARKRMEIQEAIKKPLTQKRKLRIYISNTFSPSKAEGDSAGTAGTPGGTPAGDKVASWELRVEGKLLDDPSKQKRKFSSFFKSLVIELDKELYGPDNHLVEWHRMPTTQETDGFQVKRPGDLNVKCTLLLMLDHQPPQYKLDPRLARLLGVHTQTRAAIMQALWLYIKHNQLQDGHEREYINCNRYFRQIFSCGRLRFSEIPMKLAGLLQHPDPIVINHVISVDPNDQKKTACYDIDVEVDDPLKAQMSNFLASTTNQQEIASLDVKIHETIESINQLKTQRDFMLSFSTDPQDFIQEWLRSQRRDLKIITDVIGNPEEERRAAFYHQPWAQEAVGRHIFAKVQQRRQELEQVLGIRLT

Assay [1] has as its target BRG1 (human (endogenous in Raji, MLS, EWS and HT1080 cell lines)) (UniProt P51532). The experiment in a line: affinity purification with mass spectrometry; biotinylated anti-BRG1 antibody and streptavidin Dynabeads on nuclear extracts (150 mM salt) of MLS 402-91, MLS 2645-94, EWS TC-71 and EWS IOR/CAR; washes in 10 mM TEAB; 1% formic acid eluates analysed by MS (Study 2).

In assay [2] the target is GST‐tagged EWSR1‐NTD (human) (UniProt Q01844). Briefly: affinity purification with mass spectrometry; GST-tagged FET-NTD baits on Glutathione-Sepharose 4B incubated with Raji cell extract 2-4 h at 4°C; washed four times in 20 mM Tris pH 7.5, 0.5% NP-40, 100 mM NaCl, 2 mM MgCl2; SDS-PAGE, excised gel bands analysed by MS (Study 1); only the target purified.
Assay [3] deals with GST‐tagged FUS‐NTD (human) (UniProt P35637). The assay is described as above.

These are yes or no findings as the source states them, for the method shown. In cells and extracts the contact can be indirect. A yes stands for co-enrichment or nearness to the bait. Other partners may have been found.

Regarding BAF170 (from UniProt Q8TAQ2 1-1214), the binding result in assay [1], in assay [2] and in assay [3] was “binds” throughout. Take BAF60C (from UniProt Q6STE5 1-483): the binding result in assay [1] is reported as “binds”. On the same count and under the same terms, under BAF45D (from UniProt Q92785 1-391) stands “binds”.

With BAF155 (from UniProt Q92922 1-1105), the binding result in assay [2] and in assay [3] was “binds” each time. For BAF47 (from UniProt Q12824 1-385), the binding result in assay [1] was “binds”.

With EWSR1 (from UniProt Q01844 1-656), the binding result in assay [1] was “binds”. Turning to BRG1 (from UniProt P51532 1-1647), the binding entry in assay [2] and in assay [3] was “binds” each time. Take BAF57 (from UniProt Q969G3 1-411): the binding result in assay [1] was “binds”. The same measure, in the same setting: then BAF60B (from UniProt Q92925 1-531), with “binds”; and FUS (from UniProt P35637 1-526), with “binds”.

B1: BAF45A (protein, UniProt Q8WUB8 1-498)
chain: MAAAAGPGAALSPRPCDSDPATPGAQSPKDDNEDNSNDGTQPSKRRRMGSGDSSRSCETSSQDLGFSYYPAENLIEYKWPPDETGEYYMLQEQVSEYLGVTSFKRKYPDLERRDLSHKEKLYLRELNVITETQCTLGLTALRSDEVIDLMIKEYPAKHAEYSVILQEKERQRITDHYKEYSQMQQQNTQKVEASKVPEYIKKAAKKAAEFNSNLNRERMEERRAYFDLQTHVIQVPQGKYKVLPTERTKVSSYPVALIPGQFQEYYKRYSPDELRYLPLNTALYEPPLDPELPALDSDGDSDDGEDGRGDEKRKNKGTSDSSSGNVSEGESPPDSQEDSFQGRQKSKDKAATPRKDGPKRSVLSKSVPGYKPKVIPNAICGICLKGKESNKKGKAESLIHCSQCENSGHPSCLDMTMELVSMIKTYPWQCMECKTCIICGQPHHEEEMMFCDMCDRGYHTFCVGLGAIPSGRWICDCCQRAPPTPRKVGRRGKNSKEG
With B1, in assay [1], the binding entry is “binds”.
